The campaign covered roughly 220,000 compounds. About 770 (0.35%) were called active. Inconclusive results, whose numbers are uncertain, are shown with a selection of clear calls. Cut-off read from the data, not from the text of the source: active = binding response below about 49% or above about 150%; inconclusive = no clear call, values can overlap the other calls; inactive = in between.
Each compound was assayed against Guanine nucleotide-binding protein G(o) subunit alpha (Homo sapiens) (UniProt P09471) (assay: RGS7-Galphao binding modulators, primary screen, biochemical, multiplexed bead flow cytometry (AID 1439;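 note: fluorescent Galphao held in activated GDP-AlF4 state binding bead-coupled RGS7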)). Settings: at 10 µM, actives lie on both sides.

Sequences of proteins named here, by UniProt entry; tags and fusion partners are left off.
UniProt P09471, whole entry, looked up: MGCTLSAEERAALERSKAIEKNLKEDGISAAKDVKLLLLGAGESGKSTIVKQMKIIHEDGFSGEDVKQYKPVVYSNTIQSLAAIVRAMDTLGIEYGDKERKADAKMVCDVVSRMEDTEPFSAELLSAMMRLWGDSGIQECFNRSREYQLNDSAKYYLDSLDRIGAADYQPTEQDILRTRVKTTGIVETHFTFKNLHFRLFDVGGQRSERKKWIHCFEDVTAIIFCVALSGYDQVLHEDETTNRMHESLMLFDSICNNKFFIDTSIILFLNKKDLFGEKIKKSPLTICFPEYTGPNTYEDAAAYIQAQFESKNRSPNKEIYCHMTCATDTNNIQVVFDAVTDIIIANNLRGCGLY

Row | Compound | binding response (% of control)
1 | CCc1cccc(CC)c1N(COC)C(=O)Cn1cnc2ccccc21 | inconclusive: 84.9%
2 | COC/C=C/C1=CC2=CC(=O)C(C)(OC(=O)c3cnc4ccccc4n3)C(=O)C2=CN1CCCOC(C)C (stereo not given) | inconclusive: 110%
3 | CCOC(=O)/C(=N\Nc1ccccc1)P(=O)(c1ccccc1)c1ccccc1 | inconclusive: 83.3%
4 | CC(OC(=O)c1cc(=O)[nH]c2ccccc12)C(=O)c1ccccc1 (stereo not given) | inactive: 97.6%
5 | CC(C)CN(CC(C)C)S(=O)(=O)N1CCC(C(=O)NCc2ccc3c(c2)OCO3)CC1 | inconclusive: 105%
6 | O=C(O)C1(P(=O)(c2ccccc2)c2ccccc2)CCCC1 | inconclusive: 90.3%
7 | CC(/C=N\NC(=O)Cn1cncn1)=C/c1ccc(C(C)C)cc1 | inconclusive: 51.8%
8 | O=C(O)c1cccc(CN2C(=O)S/C(=C/c3cccc([N+](=O)[O-])c3)C2=O)c1 | inconclusive: 89.2%
9 | CC(C)NCC1CCc2cc(CO)c([N+](=O)[O-])cc2N1 (stereo not given) | inconclusive: 77.5%
10 | Cc1oc(C(C)(C)C)cc1C(=O)NC1CCN(Cc2ccccc2)CC1 | inconclusive: 51.5%
11 | O=C(C(c1ccccc1)c1ccccc1)N1CC[C@@]2(O)CCCC[C@H]2C1 | inconclusive: 89.7%
12 | Cc1noc(C)c1S(=O)(=O)Nc1ccccc1Oc1ccccc1 | inconclusive: 132%
13 | COc1ccc(C2/C=C\CN(S(=O)(=O)c3ccc4ccccc4c3)CC(=O)N2Cc2ccc(F)cc2)cc1 (stereo not given) | inconclusive: 118%
14 | Cc1ccc2sc(-c3ccc(NC(=O)/C=C\C(=O)O)cc3)nc2c1 | inactive: 99.6%
15 | CC(=O)Nc1ccc(C(=O)OCC(=O)Nc2ccc(N3CCOCC3)cc2)cc1 | inconclusive: 116%
16 | COc1ccc(C(CNC(=O)c2ccc(S(=O)(=O)N3CCCC3)cc2)N2CCOCC2)cc1 (stereo not given) | inconclusive: 77.2%
17 | CC(/C=N/n1c(-c2n[nH]c3c2CCC3)n[nH]c1=S)=C\c1ccco1 | inconclusive: -109%
18 | Cc1ccc(SCC(=O)NC(=O)NCCC(C)C)c(C)c1 | inactive: 99%
19 | CCCN(CC(=O)Nc1ccccc1OC)C(=O)c1cc2ccccc2o1 | inconclusive: 97.6%
20 | Cc1[nH]n(-c2ccc(Cl)cc2)c(=O)c1N=Nc1cccnc1 | inconclusive: 90.2%
21 | Cc1cc2nc(C(C)(C)C)cc(N)n2n1 | inconclusive: 113%
22 | C[C@H](NC(=O)CCn1nnc2ccccc2c1=O)C(=O)O | inconclusive: -84.5%
23 | Cc1cc(C)cc(Oc2nc3ccccn3c(=O)c2/C=C(\C#N)C(=O)NC2CCS(=O)(=O)C2)c1 (stereo not given) | inconclusive: 107%

Row | Compound | binding response (% of control)
24 | Cc1ccc(SCC(=O)Nc2ccc(N3CCOCC3)cc2)cc1 | inconclusive: 105%
25 | CC1S/C(=N\N=C\c2cccc([N+](=O)[O-])c2)N(C(C)(C)C)C1=O (stereo not given) | inconclusive: 104%
26 | CCn1c(C)nc2cc(C(=O)N/N=C/c3ccccc3)ccc21 | inactive: 96.7%
27 | O=C(Cc1ccccc1)NNC(=S)NC(=O)c1cccnc1 | inconclusive: 70.3%
28 | CC[n+]1c(S(=O)(=O)[O-])ccc2ccc(C)cc21 | inactive: 95.4%
29 | CC1(C)CC(NC(=O)C23CCC(C)(C2Br)C3(C)C)CC(C)(C)N1 (stereo not given) | inconclusive: 269%
30 | Cc1cc(/C(N)=N/OC(=O)Nc2ccccc2)no1 | inconclusive: 199%
31 | Cc1cc(=O)[nH]c(SCC(=O)Nc2cc(S(=O)(=O)N(C)C)ccc2Cl)n1 | inconclusive: 103%
32 | CC1CN(c2ccc([N+](=O)[O-])cc2Cl)CCN1S(C)(=O)=O (stereo not given) | inconclusive: 106%
33 | O=C(NCC1(N2CCCCC2)CCCCC1)C1CC(=O)N(c2ccc3c(c2)OCCO3)C1 (stereo not given) | inconclusive: 97.5%
34 | CCN(C(=O)CSc1nnc(-c2ccccc2)n1C)C1CCS(=O)(=O)C1 (stereo not given) | inconclusive: 88.3%
35 | O=S(=O)(CCSc1ccc(C(F)(F)F)cn1)c1ccccc1 | inconclusive: 22.9%
36 | Cc1ccc(SCCN2CCN(CC(C)C)CCC2=O)cc1 | inconclusive: 127%
37 | Cc1ccc(NC(=S)NCCc2c[nH]c3ccccc23)c(C)c1 | inconclusive: 120%
38 | O=C(O)C1CC=CCC1C(=O)NCc1ccc2c(c1)OCO2 (stereo not given) | inactive: 100%
39 | Cc1ccc(NC(=O)C[n+]2cc(-c3ccccc3)n3c2CCC3)c(C)c1 | inconclusive: 108%
40 | COCCNC(=O)/C(C#N)=C/c1cn(CC(=O)NCc2ccco2)c2ccccc12 | inconclusive: 71.4%
41 | CCCCOP(=O)(OCCCC)C(Nc1ccccc1)c1ccc2c(c1)OCO2 (stereo not given) | inactive: 96.5%
42 | O=C(NCCCN1CCCC1=O)C1CCCO1 (stereo not given) | inconclusive: 135%
43 | CCOC(=O)c1cncc(C#CCO)c1 | inconclusive: 90.2%
44 | CCOCCCNC(=O)/C(C#N)=C/c1cc(Br)c(O)c(Br)c1 | inconclusive: 68.9%
45 | O=C(Cn1cnc2cc([N+](=O)[O-])ccc2c1=O)Nc1ccccc1-c1ccccc1 | inconclusive: -4.17%

Some of these compounds in order of SMILES length, rising:
Row | Compound | binding response (% of control)
42 | O=C(NCCCN1CCCC1=O)C1CCCO1 (stereo not given) | inconclusive: 135%
32 | CC1CN(c2ccc([N+](=O)[O-])cc2Cl)CCN1S(C)(=O)=O (stereo not given) | inconclusive: 106%
31 | Cc1cc(=O)[nH]c(SCC(=O)Nc2cc(S(=O)(=O)N(C)C)ccc2Cl)n1 | inconclusive: 103%

— PubChem BioAssay AID1439 (NMMLSC, 2008)
